# Source: the supplement of paper PMC8728848
# This is one part of the list.
# B1: PX9961W-pdi-543-27-543 (Parabacteroides distasonis) (protein)
# chain: EGNATTTSYFLNDQQAIDAIDGLYERFHQEGCYGRELFWEQGAACDIVWGRTRGYNSLATLAYTGDESPLRDVFSRMYSTMSRANWIIQELVKKEKGTTLTAVEKRSLGEAYFSRGWAHYLIAYRYGTDKQGVPFVRYEDFPDDYDNSIPPQQATVMDNYKLIIEDMDKAIAYLPIFESYDADNRGRAHQAAAVAFKAKTYAYWATWDATQWNNVIEMVNQLENNYNRDLAPTFAELFSSDLKDYWNAEYLWTIPSIGGALPGGTEFPGIILENKGWGKYNGWGQMKPSYDIYEEMAKDGKGNDRLVRSILEYNQEFPFFGETRKFWSTSDLEAGFMINKYMDAFKYSDPVGEGAVSANGDWPTVRVNFPIIRFAEMLLFRAEAYLMTGQADKATADINRIRLRSNLTPLTGTATMKDLYHERRCELAFEFTDHLFDLKRWNRSSNADIKTLADKELNAHPRIRRYEDRANPESAFTIIGYEDYTNKNAYQAHMMVFPYPSEEITKSNGQLKQNEGY
# Columns and labels:
# Experiment in all cases: glycan array binding signal (z-score within array); higher = stronger binding
# Conditions in all cases: glycan notation: IUPAC condensed, linker removed
# [1] = biological target: Neu5Ac(a2-6)Gal(b1-4)GlcNAc(b1-6)GalNAc
# Method in brief: (§1)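 From the Consortium for Functional Glycomics database, 3228 arrays were curated, keeping only those whose protein sequence was available. Binding is given as a within-array Z-score averaged across arrays sharing a protein sequence and across linkers. Negative Z-scores can be read as non-binding.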
# [2] = biological target: Neu5Ac(a2-6)Gal(b1-4)GlcNAc(b1-6)[Gal(b1-3)GlcNAc(b1-3)]Gal(b1-4)Glc
# Method in brief: as §1
# [3] = biological target: Neu5Ac(a2-6)Gal(b1-4)GlcNAc(b1-6)[Gal(b1-3)]GalNAc
# Method in brief: as §1
# [4] = biological target: Neu5Ac(a2-6)Gal(b1-4)GlcNAc6S
# Method in brief: as §1
# Neu5Ac(a2-6)GalNAc = biological target: Neu5Ac(a2-6)GalNAc
# Method in brief: as §1
# [5] = biological target: Neu5Ac(a2-6)GalNAc(b1-4)GlcNAc
# Method in brief: as §1
# [6] = biological target: Neu5Ac(a2-6)GalNAc(b1-4)GlcNAc6S
# Method in brief: as §1
# [7] = biological target: Neu5Ac(a2-6)GlcNAc(b1-4)GlcNAc
# Method in brief: as §1
# [8] = biological target: Neu5Ac(a2-6)GlcNAc(b1-4)GlcNAc(b1-4)GlcNAc
# Method in brief: as §1
# Neu5Ac(a2-8)Neu5Ac = biological target: Neu5Ac(a2-8)Neu5Ac
# Method in brief: as §1
# [9] = biological target: Neu5Ac(a2-8)Neu5Ac(a2-3)Gal(b1-3)GalNAc(b1-4)[Neu5Ac(a2-3)]Gal(b1-4)Glc
# Method in brief: as §1
# [10] = biological target: Neu5Ac(a2-8)Neu5Ac(a2-3)Gal(b1-3)GalNAc(b1-4)[Neu5Ac(a2-8)Neu5Ac(a2-3)]Gal(b1-4)Glc
# Method in brief: as §1
# [11] = biological target: Neu5Ac(a2-8)Neu5Ac(a2-3)Gal(b1-4)Glc
# Method in brief: as §1
# [12] = biological target: Neu5Ac(a2-8)Neu5Ac(a2-3)Gal(b1-4)GlcNAc
# Method in brief: as §1
# [13] = biological target: Neu5Ac(a2-8)Neu5Ac(a2-3)[Gal(b1-3)GalNAc(b1-4)]Gal(b1-4)Glc
# Method in brief: as §1
# [14] = biological target: Neu5Ac(a2-8)Neu5Ac(a2-3)[GalNAc(b1-4)]Gal(b1-4)Glc
# Method in brief: as §1
# [15] = biological target: Neu5Ac(a2-8)Neu5Ac(a2-8)Neu5Ac
# Method in brief: as §1
# [16] = biological target: Neu5Ac(a2-8)Neu5Ac(a2-8)Neu5Ac(a2-3)Gal(b1-4)Glc
# Method in brief: as §1
# [17] = biological target: Neu5Ac(a2-8)Neu5Ac(a2-8)Neu5Ac(a2-3)[Gal(b1-3)GalNAc(b1-4)]Gal(b1-4)Glc
# Method in brief: as §1
# [18] = biological target: Neu5Ac(a2-8)Neu5Ac(a2-8)Neu5Ac(a2-3)[GalNAc(b1-4)]Gal(b1-4)Glc
# Method in brief: as §1
# [19] = biological target: Neu5Ac(a2-8)Neu5Ac(a2-8)Neu5Ac(a2-8)Neu5Ac(a2-3)[GalNAc(b1-4)]Gal(b1-4)Glc
# Method in brief: as §1
# [20] = biological target: Neu5Ac(a2-8)Neu5Gc(a2-3)Gal(b1-4)GlcNAc
# Method in brief: as §1
# [21] = biological target: Neu5Ac(b2-6)Gal(b1-4)GlcNAc
# Method in brief: as §1
# Neu5Ac(b2-6)GalNAc = biological target: Neu5Ac(b2-6)GalNAc
# Method in brief: as §1
# [22] = biological target: Neu5Ac9Ac(a2-3)Gal(b1-3)GlcNAc
# Method in brief: as §1
# [23] = biological target: Neu5Ac9Ac(a2-3)Gal(b1-4)GlcNAc
# Method in brief: as §1
# [24] = biological target: Neu5Ac9Ac(a2-6)Gal(b1-4)GlcNAc
# Method in brief: as §1
# [25] = biological target: Neu5Gc(a2-3)Gal(b1-3)GlcNAc
# Method in brief: as §1
# [26] = biological target: Neu5Gc(a2-3)Gal(b1-3)[Fuc(a1-4)]GlcNAc
# Method in brief: as §1
# Neu5Gc(a2-3)Gal(b1-4)Glc = biological target: Neu5Gc(a2-3)Gal(b1-4)Glc
# Method in brief: as §1
# [27] = biological target: Neu5Gc(a2-3)Gal(b1-4)GlcNAc
# Method in brief: as §1
# [28] = biological target: Neu5Gc(a2-3)Gal(b1-4)GlcNAc(b1-3)Gal(b1-4)GlcNAc(b1-2)Man(a1-3)[Neu5Gc(a2-3)Gal(b1-4)GlcNAc(b1-3)Gal(b1-4)GlcNAc(b1-2)Man(a1-6)]Man(b1-4)GlcNAc(b1-4)GlcNAc
# Method in brief: as §1
# [29] = biological target: Neu5Gc(a2-3)Gal(b1-4)[Fuc(a1-3)]GlcNAc
# Method in brief: as §1
# [30] = biological target: Neu5Gc(a2-6)Gal(b1-4)GlcNAc
# Method in brief: as §1
# Neu5Gc(a2-6)GalNAc = biological target: Neu5Gc(a2-6)GalNAc
# Method in brief: as §1
# [31] = biological target: Neu5Gc(a2-8)Neu5Ac(a2-3)Gal(b1-4)GlcNAc
# Method in brief: as §1
# [32] = biological target: Neu5Gc(a2-8)Neu5Gc(a2-3)Gal(b1-4)GlcNAc
# Method in brief: as §1
# [33] = biological target: Neu5Gc(a2-8)Neu5Gc(a2-3)Gal(b1-4)GlcNAc(b1-3)Gal(b1-4)GlcNAc
# Method in brief: as §1
binder,measurement,setting,value
B1,glycan array binding signal (z-score),[1],0.508
same,glycan array binding signal (z-score),[2],-0.801
same,glycan array binding signal (z-score),[3],-0.176
same,glycan array binding signal (z-score),[4],-0.912
same,glycan array binding signal (z-score),Neu5Ac(a2-6)GalNAc,-1.06
same,glycan array binding signal (z-score),[5],-0.098
same,glycan array binding signal (z-score),[6],0.074
same,glycan array binding signal (z-score),[7],-0.176
same,glycan array binding signal (z-score),[8],-0.018
same,glycan array binding signal (z-score),Neu5Ac(a2-8)Neu5Ac,0.374
same,glycan array binding signal (z-score),[9],-0.508
same,glycan array binding signal (z-score),[10],0.041
same,glycan array binding signal (z-score),[11],0.034
same,glycan array binding signal (z-score),[12],-0.026
same,glycan array binding signal (z-score),[13],-0.302
same,glycan array binding signal (z-score),[14],0.603
same,glycan array binding signal (z-score),[15],-0.413
same,glycan array binding signal (z-score),[16],-0.66
same,glycan array binding signal (z-score),[17],-0.424
same,glycan array binding signal (z-score),[18],-0.103
same,glycan array binding signal (z-score),[19],-1.1
same,glycan array binding signal (z-score),[20],14.4
same,glycan array binding signal (z-score),[21],0.001
same,glycan array binding signal (z-score),Neu5Ac(b2-6)GalNAc,1.53
same,glycan array binding signal (z-score),[22],-0.302
same,glycan array binding signal (z-score),[23],-0.691
same,glycan array binding signal (z-score),[24],-0.003
same,glycan array binding signal (z-score),[25],-0.935
same,glycan array binding signal (z-score),[26],-0.874
same,glycan array binding signal (z-score),Neu5Gc(a2-3)Gal(b1-4)Glc,-0.416
same,glycan array binding signal (z-score),[27],-0.905
same,glycan array binding signal (z-score),[28],-0.102
same,glycan array binding signal (z-score),[29],-0.038
same,glycan array binding signal (z-score),[30],-0.667
same,glycan array binding signal (z-score),Neu5Gc(a2-6)GalNAc,1.23
same,glycan array binding signal (z-score),[31],0.025
same,glycan array binding signal (z-score),[32],0.188
same,glycan array binding signal (z-score),[33],-0.859

# Rewritten tab-delimited: entries from further up
binder	measurement	setting	value
B1	glycan array binding signal (z-score)	[2]	-0.801
same	glycan array binding signal (z-score)	[3]	-0.176
